# Measured data: PubChem BioAssay AID504804 (Drosophila RNAi Screening Center, 2011)
# Aim: 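Knock-downs shielding fly cells from apoptosis caused by DNA damage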 (primary screen)
# Cells: Drosophila Kc cells
# Reagents: long dsRNA against Drosophila genes, 0.5 µg dsRNA per well
# Duration: 96 h (48 h knock-down, then 48 h drug)
# Conditions: doxorubicin 5 µg/ml for 48 h, added 48 h after dsRNA
# Detection: 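Viability measured as cellular ATP by luminescence after 48 h knock-down then 48 h doxorubicin at 5 µg/ml; unnormalised plate counts for each replicate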
# Scale: raw ATP luminescence: higher = more viable cells, protection from doxorubicin
# Call rule: 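Active when both duplicate wells lie at least 2 SD above the plate mean and protection is confirmed by rescreening and independent dsRNAs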
# In all, the deposit lists about 19,000 reagents; shown is an unselected part of those with a known target gene and a result. In the full data, 47 (0.25%) were called active. 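Signals are raw, not normalised; exact z-scores behind calls not deposited; actives needed confirmation, so some wells reaching 2 SD are inactive.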 The numbers tell different reagents against one gene apart. Reagent sequences are not shown.
Target gene,reagent no.,SD above plate mean,"raw ATP luminescence, replicate 1","raw ATP luminescence, replicate 2",call
CkIIbeta,1,,3.65e5,3.71e5,inactive
CG10910,1,,2.14e5,2.11e5,inactive
PGRP-SD,1,,82663,82143,inactive
CG34325,1,,3.73e5,3.46e5,inactive
CG34325,2,,3.63e5,3.62e5,inactive
mys,1,,25070,36820,inactive
Mnn1,1,,19823,25143,inactive
DEF8,1,,34447,39890,inactive
CG2962,1,at least 2 SD above plate mean,,,inactive
Uros2,1,,69140,51590,inactive
CG13073,1,,53090,43387,inactive
sr,1,,2.02e5,1.94e5,inactive
sr,2,,19030,20210,inactive
CG11357,1,2 to 3 SD above plate mean,1.06e5,1.30e5,inactive
CG18266,1,,1.06e5,93967,inactive
Gr68a,1,,92000,69073,inactive
CG4098,1,,54843,39393,inactive
CG14014,1,,34890,31453,inactive

Reprinted from the listing for reference:
Target gene,reagent no.,SD above plate mean,"raw ATP luminescence, replicate 1","raw ATP luminescence, replicate 2",call
Mnn1,1,,19823,25143,inactive
DEF8,1,,34447,39890,inactive
CG2962,1,at least 2 SD above plate mean,,,inactive
Uros2,1,,69140,51590,inactive

The listing continues:
Target gene,reagent no.,SD above plate mean,"raw ATP luminescence, replicate 1","raw ATP luminescence, replicate 2",call
Chpf,1,,3.51e5,3.50e5,inactive
CG8671,1,,62453,55000,inactive
CG8671,2,,81927,60760,inactive
CG5934,1,,54360,35530,inactive
Rab30,1,,32600,37937,inactive
kmr,1,,2.62e5,2.55e5,inactive
kmr,2,,1.20e5,77660,inactive
kmr,3,,94310,64210,inactive
kmr,4,,44153,31417,inactive
Ptp69D,1,,83310,54857,inactive
CG7133,1,,25857,25180,inactive
CG18628,1,,81207,80807,inactive
brwl,1,,1.45e5,1.75e5,inactive
brwl,2,,93797,86707,inactive
Ance,1,,93213,60437,inactive
CG33673,1,,3.09e5,3.16e5,inactive
